US8410247B2, “Water-soluble phosphinothiol reagents” (Wisconsin Alumni Research Foundation, priority 2008, dated 2013)

Tests used:
[1] = Traceless Staudinger ligation in aqueous buffer with azide 15, 13C NMR assay; details: equimolar reactants
[2] = Traceless Staudinger ligation in aqueous buffer with azide 67, quantitative 13C NMR; details: near pH 8.0; equimolar with azide 67

Row | Compound | ligation yield of amide 16 ([1]; all solutions with pH ≧7.5) | ligation yield of amide 16 ([1]; at high pH, 0.40 M sodium phosphate buffer) [%] | ligation yield of amide 68 [2] [%]
1 | CN(C)CCc1ccc(P(CS)c2ccc(CCN(C)C)cc2)cc1 [phosphinothiol 17, bis(p-dimethylaminoethyl) phosphinomethanethiol] | exceeded 80% | 94 | –
2 | CN(C)Cc1cccc(P(CS)c2cccc(CN(C)C)c2)c1 [phosphinothiol 34, HSCH2P(C6H4-m-CH2NMe2)2.2HCl] | – | – | ~70
